In paper PMC6446049 (Alzheimer's & Dementia : Translational Research & Clinical …, 2019):

Test: Plasma pharmacokinetics
Conditions: human, in vivo, iv, 0.3 mg

`CN1[C@@H]2C[C@@H](OC(=O)[C@H](CO)c3ccccc3)C[C@H]1[C@@H]1O[C@@H]12` [scopolamine] showed an AUC(0-inf) of 3.43 ng·h/mL.
